Patent publication US12714672B2, “Aquatic liposomes encapsulating natural compounds and manufacturing method thereof” (Chung Shan Medical University, priority 2023, dated 2026)
For at least one compound, name, drawing or mass did not settle the structure.

How the values were obtained:
microglia (BV-2) = test: Inflammatory mediators after P. aeruginosa LPS induction; settings: Asl-lipo 0 mg/ml, THC 12.5, 25, 50 μM; LPS 24 hours
[1] = tested on: retinal pigment epithelium cells (ARPE-19); test: Cell viability (CCK-8) after sodium iodate induction; settings: Asl-lipo 0 mg/ml, THC 12.5, 25, 50 μM; 6 mM NaIO3 24 hours

## COc1cc(CCC(=O)CC(=O)CCc2ccc(O)c(OC)c2)ccc1O [tetrahydrocurcumin (THC), Tetrahydrocurcumin]
Microglia (BV-2)
  Levels of inflammatory mediators (NO, TNF-α, IL-6, IP-10, MIP-2): decreased compared to the control group
[1]
  Cell viability: greater than the cell viability of the control group
